Source: paper PMC3689047
No constants are given. Whether binding was seen depends on the method and setting. For some assays here: In cells and extracts the contact can be indirect. Some entries that bind do so weakly or less than the wild type. Sequences can lack the tags named with a protein. Blank lines part the entries; values can stand above or below the molecule they belong to.

By UniProt entry, the sequences of proteins in these tests, tags left out. Where a name states a change or a piece, a line headed by the entry shows the natural chain unless it says otherwise. Residues count along the entry.
UniProt O00303: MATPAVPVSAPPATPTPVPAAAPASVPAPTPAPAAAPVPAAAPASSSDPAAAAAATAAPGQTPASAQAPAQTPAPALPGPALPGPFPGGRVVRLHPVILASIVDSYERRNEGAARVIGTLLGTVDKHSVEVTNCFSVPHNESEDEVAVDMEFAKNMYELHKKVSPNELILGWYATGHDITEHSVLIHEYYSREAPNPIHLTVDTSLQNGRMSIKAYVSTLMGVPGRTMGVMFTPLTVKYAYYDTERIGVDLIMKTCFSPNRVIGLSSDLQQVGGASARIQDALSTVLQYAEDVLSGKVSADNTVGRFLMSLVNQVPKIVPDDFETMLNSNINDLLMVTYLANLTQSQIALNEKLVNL
GST-eIF3f aa1-113 (N-terminal region of eIF3f): residues 1-113 of O00303

How the values were obtained:
[1] = target: T1, hMSH4 (human MutS homologue 4), full-length, GAL4-BD fusion (human) (UniProt O15457); assay: two-hybrid; pairwise analysis in S. cerevisiae strain AH109; positive interactions by activation of the ADE2 and HIS3 reporter genes
T1 sequence: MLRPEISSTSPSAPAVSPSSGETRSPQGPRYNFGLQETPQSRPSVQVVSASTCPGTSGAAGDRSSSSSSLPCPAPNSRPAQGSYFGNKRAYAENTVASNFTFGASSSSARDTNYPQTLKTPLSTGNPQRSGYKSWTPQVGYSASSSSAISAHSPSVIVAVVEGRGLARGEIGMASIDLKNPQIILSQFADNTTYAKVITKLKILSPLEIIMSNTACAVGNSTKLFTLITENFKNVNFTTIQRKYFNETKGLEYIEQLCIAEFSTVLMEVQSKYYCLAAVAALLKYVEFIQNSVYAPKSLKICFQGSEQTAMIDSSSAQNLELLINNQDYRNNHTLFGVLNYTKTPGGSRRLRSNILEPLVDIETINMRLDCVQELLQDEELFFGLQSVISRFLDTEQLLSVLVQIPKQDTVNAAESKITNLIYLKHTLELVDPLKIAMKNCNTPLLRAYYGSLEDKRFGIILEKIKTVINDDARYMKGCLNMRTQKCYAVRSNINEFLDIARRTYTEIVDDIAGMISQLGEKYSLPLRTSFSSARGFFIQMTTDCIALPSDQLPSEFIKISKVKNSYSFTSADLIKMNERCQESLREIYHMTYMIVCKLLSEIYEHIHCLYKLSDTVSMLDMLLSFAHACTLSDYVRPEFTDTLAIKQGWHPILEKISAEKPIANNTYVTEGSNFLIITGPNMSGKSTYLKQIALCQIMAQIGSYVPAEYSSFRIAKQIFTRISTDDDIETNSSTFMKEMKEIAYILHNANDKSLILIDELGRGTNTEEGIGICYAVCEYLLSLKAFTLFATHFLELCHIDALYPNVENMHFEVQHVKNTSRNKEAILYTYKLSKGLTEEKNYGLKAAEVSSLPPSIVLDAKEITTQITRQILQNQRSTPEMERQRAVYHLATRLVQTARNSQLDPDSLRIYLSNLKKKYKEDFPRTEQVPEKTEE

[2] = target: T1, hMSH4 (human MutS homologue 4), full-length, GAL4-BD fusion (human); assay: two-hybrid; library screen: full-length hMSH4 as GAL4-BD bait (pAS2-1) against a human ovary cDNA library in S. cerevisiae strain Y187
[3] = target: Flag-tagged eIF3f (human) (UniProt O00303); assay: co-IP; Myc-tagged hMSH4 or hMSH4sv co-expressed with Flag-eIF3f in 293T cells; IP with anti-Myc or anti-Flag, Protein A/rProtein G-Agarose beads; also in 293T/eIF3f cells with or without 10 Gy IR (lysates 2 hrs post-IR)
[4] = target: GST-eIF3f aa1-113 (N-terminal region of eIF3f) (human) (UniProt O00303); assay: pull-down; GST pull-down of recombinant His6-hMSH4 with GST-eIF3f fusion proteins on Glutathione-Sepharose 4B beads
[5] = target: GST-eIF3f, full-length (human) (UniProt O00303); assay: as above

binding [1]: binds
binding [2]: binds
Molecule: eIF3f (eukaryotic translation initiation factor 3, subunit F), full-length clone from the human ovary cDNA library (from UniProt O00303 1-357)

binding [3]: binds
B1: Myc-tagged hMSH4, full-length (protein, UniProt O15457 1-936)
chain: MLRPEISSTSPSAPAVSPSSGETRSPQGPRYNFGLQETPQSRPSVQVVSASTCPGTSGAAGDRSSSSSSLPCPAPNSRPAQGSYFGNKRAYAENTVASNFTFGASSSSARDTNYPQTLKTPLSTGNPQRSGYKSWTPQVGYSASSSSAISAHSPSVIVAVVEGRGLARGEIGMASIDLKNPQIILSQFADNTTYAKVITKLKILSPLEIIMSNTACAVGNSTKLFTLITENFKNVNFTTIQRKYFNETKGLEYIEQLCIAEFSTVLMEVQSKYYCLAAVAALLKYVEFIQNSVYAPKSLKICFQGSEQTAMIDSSSAQNLELLINNQDYRNNHTLFGVLNYTKTPGGSRRLRSNILEPLVDIETINMRLDCVQELLQDEELFFGLQSVISRFLDTEQLLSVLVQIPKQDTVNAAESKITNLIYLKHTLELVDPLKIAMKNCNTPLLRAYYGSLEDKRFGIILEKIKTVINDDARYMKGCLNMRTQKCYAVRSNINEFLDIARRTYTEIVDDIAGMISQLGEKYSLPLRTSFSSARGFFIQMTTDCIALPSDQLPSEFIKISKVKNSYSFTSADLIKMNERCQESLREIYHMTYMIVCKLLSEIYEHIHCLYKLSDTVSMLDMLLSFAHACTLSDYVRPEFTDTLAIKQGWHPILEKISAEKPIANNTYVTEGSNFLIITGPNMSGKSTYLKQIALCQIMAQIGSYVPAEYSSFRIAKQIFTRISTDDDIETNSSTFMKEMKEIAYILHNANDKSLILIDELGRGTNTEEGIGICYAVCEYLLSLKAFTLFATHFLELCHIDALYPNVENMHFEVQHVKNTSRNKEAILYTYKLSKGLTEEKNYGLKAAEVSSLPPSIVLDAKEITTQITRQILQNQRSTPEMERQRAVYHLATRLVQTARNSQLDPDSLRIYLSNLKKKYKEDFPRTEQVPEKTEE

binding [4]: binds
binding [5]: binds
B2: recombinant His6-hMSH4 (protein, UniProt O15457 1-936)
chain: MLRPEISSTSPSAPAVSPSSGETRSPQGPRYNFGLQETPQSRPSVQVVSASTCPGTSGAAGDRSSSSSSLPCPAPNSRPAQGSYFGNKRAYAENTVASNFTFGASSSSARDTNYPQTLKTPLSTGNPQRSGYKSWTPQVGYSASSSSAISAHSPSVIVAVVEGRGLARGEIGMASIDLKNPQIILSQFADNTTYAKVITKLKILSPLEIIMSNTACAVGNSTKLFTLITENFKNVNFTTIQRKYFNETKGLEYIEQLCIAEFSTVLMEVQSKYYCLAAVAALLKYVEFIQNSVYAPKSLKICFQGSEQTAMIDSSSAQNLELLINNQDYRNNHTLFGVLNYTKTPGGSRRLRSNILEPLVDIETINMRLDCVQELLQDEELFFGLQSVISRFLDTEQLLSVLVQIPKQDTVNAAESKITNLIYLKHTLELVDPLKIAMKNCNTPLLRAYYGSLEDKRFGIILEKIKTVINDDARYMKGCLNMRTQKCYAVRSNINEFLDIARRTYTEIVDDIAGMISQLGEKYSLPLRTSFSSARGFFIQMTTDCIALPSDQLPSEFIKISKVKNSYSFTSADLIKMNERCQESLREIYHMTYMIVCKLLSEIYEHIHCLYKLSDTVSMLDMLLSFAHACTLSDYVRPEFTDTLAIKQGWHPILEKISAEKPIANNTYVTEGSNFLIITGPNMSGKSTYLKQIALCQIMAQIGSYVPAEYSSFRIAKQIFTRISTDDDIETNSSTFMKEMKEIAYILHNANDKSLILIDELGRGTNTEEGIGICYAVCEYLLSLKAFTLFATHFLELCHIDALYPNVENMHFEVQHVKNTSRNKEAILYTYKLSKGLTEEKNYGLKAAEVSSLPPSIVLDAKEITTQITRQILQNQRSTPEMERQRAVYHLATRLVQTARNSQLDPDSLRIYLSNLKKKYKEDFPRTEQVPEKTEE
